Patent publication US20230241167A1, “Use of Caveolin-1 Scaffolding Domain Peptides for Treating Disease and Disorders” (MUSC Foundation for Research Development, priority 2020, published 2023)
At least one peptide structure holds a part that was inferred or is arguable (an end, a ring closure or a residue). Square brackets hold non-standard residues; d marks the D form. Peptide text beside a SMILES is read from it. * marks the point of attachment. 5FAM = O=C1OC2(c3ccc(O)cc3Oc3cc(O)ccc32)c2ccc(C(=O)*)cc21

Experiment: Fig. 32

| Structure (SMILES) | Maximum Plasma Level [µM] |
| --- | --- |
| CC[C@H](C)[C@H](NC(=O)CNC(=O)[C@H](CC(=O)O)NC(=O)c1ccc2c(c1)C(=O)OC21c2ccc(O)cc2Oc2cc(O)ccc21)C(=O)N[C@@H](Cc1c[nH]c2ccccc12)C(=O)N[C@@H](CCCCN)C(=O)N[C@@H](C)C(=O)N[C@@H](CO)C(=O)N[C@@H](Cc1ccccc1)C(=O)N[C@H](C(=O)N[C@H](C(=O)N[C@@H](Cc1ccccc1)C(=O)N[C@H](C(=O)N[C@H](C(=O)N[C@H](C(=O)N[C@@H](CCCCN)C(=O)N[C@@H](Cc1ccc(O)cc1)C(=O)N[C@@H](Cc1c[nH]c2ccccc12)C(=O)N[C@@H](Cc1ccccc1)C(=O)N[C@@H](Cc1ccc(O)cc1)C(=O)N[C@@H](CCCNC(=N)N)C(=O)O)[C@@H](C)O)C(C)C)[C@@H](C)O)[C@@H](C)O)[C@@H](C)O [FAM-CSD] (5FAM-DGIWKASFTTFTVTKYWFYR-OH) | 0.14 |
| CC[C@H](C)[C@H](NC(=O)CNC(=O)[C@H](CC(=O)O)NC(=O)[C@@H](CCCCN)NC(=O)[C@@H](CCCCN)NC(=O)c1ccc2c(c1)C(=O)OC21c2ccc(O)cc2Oc2cc(O)ccc21)C(=O)N[C@@H](Cc1c[nH]c2ccccc12)C(=O)N[C@@H](CCCCN)C(=O)N[C@@H](C)C(=O)N[C@@H](CO)C(=O)N[C@@H](Cc1ccccc1)C(=O)N[C@H](CCCCN)C(=O)N[C@H](CCCCN)C(=O)O [FAM-W82-89] (5FAM-[dK][dK]DGIWKASF[dK][dK]-OH) | 1.24 |
| CC[C@H](C)[C@H](NC(=O)CNC(=O)[C@H](CC(=O)O)NC(=O)[C@@H](CCCCN)NC(=O)[C@@H](CCCCN)NC(=O)c1ccc2c(c1)C(=O)OC21c2ccc(O)cc2Oc2cc(O)ccc21)C(=O)N[C@@H](Cc1c[nH]c2ccccc12)C(=O)N[C@@H](CCCCN)C(=O)N[C@@H](C)C(=O)N[C@@H](CO)C(=O)N[C@@H](Cc1ccccc1)C(=O)N[C@H](C(=O)N[C@H](C(=O)N[C@@H](Cc1ccccc1)C(=O)N[C@H](C(=O)N[C@H](C(=O)N[C@H](C(=O)N[C@@H](CCCCN)C(=O)N[C@@H](Cc1ccc(O)cc1)C(=O)N[C@@H](Cc1c[nH]c2ccccc12)C(=O)N[C@@H](Cc1ccccc1)C(=O)N[C@@H](Cc1ccc(O)cc1)C(=O)N[C@@H](CCCNC(=N)N)C(=O)N[C@H](CCCCN)C(=O)N[C@H](CCCCN)C(=O)O)[C@@H](C)O)C(C)C)[C@@H](C)O)[C@@H](C)O)[C@@H](C)O [FAM-WCSD] (5FAM-[dK][dK]DGIWKASFTTFTVTKYWFYR[dK][dK]-OH) | 0.17 |
